The results in this text go back to the supplement of paper PMC6289059.

The list shows a part of the results. Single values are uncertain, as repeats are few or missing.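 Hepatocyte-like cells derived from human stem cells with CRISPR-disrupted DGUOK model liver mtDNA depletion syndrome. Each well's ATP signal was scored against other wells on the same plate, and drugs scoring 3 or above were primary hits.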

The experiment relates to DGUOK Δ14/Δ5 iPSC-derived hepatocyte-like cells (SV20). The experiment can be described thus: ATP level (CellTiter-Glo luminescence) Z score relative to plate distribution, under 2-DG glycolysis block; higher = more cellular ATP (rescue of mitochondrial ATP production). To be noted: 5 µM; treatment time: day 15 to day 20 of differentiation (5 days); 2-deoxy-D-glucose: 20 mM for 24 h before assay. In general terms: ATP-based viability assays read luminescence as a measure of living cells.
`C/C=C(/C)C(=O)O[C@H]1CC[C@@]2(C)[C@@H]3CC[C@H]4[C@]5(O)C[C@H](O)[C@@]6(O)[C@@H](CN7C[C@@H](C)CC[C@H]7[C@@]6(C)O)[C@]5(O)C[C@]42O[C@]13O`: the ATP level is inactive: -6.71.

Turning to `CC(=O)OCC1=C(C(=O)O)N2C(=O)[C@@H](N)[C@H]2SC1`, the ATP level is inactive: 2.82.

As for `COc1cc2c(cc1OC)[C@@H]1C(=O)c3ccc4oc(C(C)C)cc4c3O[C@@H]1CO2`, the ATP level is inactive: -8.93.

For the compound `CC(=O)[C@H]1CC[C@H]2[C@@H]3CC[C@@H]4C[C@H](O)CC[C@]4(C)[C@H]3CC[C@]12C`, the ATP level is inactive: 2.31.

For `C[N+]12CCC(CC1)C(OC(=O)C(O)(c1ccccc1)c1ccccc1)C2` (stereo not drawn), the ATP level was inactive: -3.49.

Consider `O=C(O)CCC1NCC2CC1CN1CCCCC21` (stereo not drawn), for which the ATP level is inactive: -0.298.

As for `OC[C@@H](O)[C@H]1O[C@@H]2O[C@H](C(Cl)(Cl)Cl)O[C@@H]2[C@H]1O`, the ATP level was inactive: 1.13.

Regarding `COC(=O)/C(C)=C\C[C@@]12OC(C)(C)[C@@H]3C[C@@H](C=C4C(=O)c5c(O)c6c(c(CC=C(C)C)c5O[C@]431)O[C@](C)(CCC=C(C)C)C=C6)C2=O`, the ATP level was inactive: -0.896.

For `COc1cc2c(cc1-c1cc3cc4ccoc4cc3oc1=O)OCO2`, the ATP level is inactive: -1.5.

`CN(C)C(=S)SSC(=S)N(C)C`: the ATP level was active: 4.31.

For the compound `O=C1NC(=O)C(=O)C(=O)N1`, the ATP level is inactive: -4.98.

Take `OCC(Br)(Br)Br`: the ATP level was inactive: 0.952.

`CC(C)(C)NCC(O)c1ccccc1Cl` (stereo not drawn): the ATP level was inactive: 1.

As to `CCC(C)(C)O`, the ATP level is inactive: -0.296.

As for `CC[C@H]1CN2CCc3cc(OC)c(OC)cc3[C@@H]2C[C@@H]1C[C@H]1NCCc2cc(OC)c(OC)cc21`, the ATP level was inactive: -26.5.

In the case of `CC(C)(C)C(=O)C(Oc1ccc(Cl)cc1)n1cncn1` (stereo not drawn), the ATP level was inactive: -4.96.

Consider `CNC(C)C(O)c1ccccc1` (stereo not drawn), for which the ATP level was inactive: 0.368.

With `COc1cc([C@@H]2c3cc4c(cc3[C@H](O)[C@H]3COC(=O)[C@H]23)OCO4)cc(OC)c1OC`, the ATP level is inactive: -2.36.

As for `CCNC1(c2cccs2)CCCCC1=O` (stereo not drawn), the ATP level was inactive: 0.239.

`Cc1ccc(O)cc1.Cc1cccc(O)c1.Cc1ccccc1O`: the ATP level was inactive: -1.39.

For `CS(=N)(=O)CC[C@H](N)C(=O)O` (stereo partly drawn), the ATP level is inactive: 2.2.

`CC[C@H]1[C@@H]2C[C@H]3[C@@H]4N(C)c5ccccc5[C@]45C[C@@H]([C@@H]2[C@H]5O)N3[C@@H]1O`: the ATP level is inactive: 0.593.

Turning to `C[C@@H]1CC[C@H]2[C@@H](C)C(=O)O[C@@H]3O[C@@]4(C)CC[C@@H]1[C@]32OO4`, the ATP level was inactive: -0.63.

On to `COc1ccc2c(c1)[nH]c1c(C)nccc12`, for which the ATP level is inactive: 0.653.

With `CC1(C)C(C=C(Cl)Cl)C1C(=O)OCc1cccc(Oc2ccccc2)c1` (stereo not drawn), the ATP level was inactive: -0.643.

As to `O=C1c2ccccc2C(=O)c2ccccc21`, the ATP level is inactive: -2.42.

In the case of `CNC(C)[C@H](O)c1ccccc1` (stereo partly drawn), the ATP level is inactive: 0.211.

For `NCCc1c[nH]c2ccc(O)cc12`, the ATP level is inactive: -2.78.

In the case of `CCN(C(C)=O)c1cccc(-c2ccnc3c(C#N)cnn23)c1`, the ATP level was active: 3.95.

Take `O=[N+]([O-])c1ccc([As](=O)(O)O)cc1`: the ATP level was active: 7.39.

In the case of `CCC(COC(=O)c1cc(OC)c(OC)c(OC)c1)(c1ccccc1)N(C)C` (stereo not drawn), the ATP level was active: 3.54.

As for `C[C@]12CC[C@H]3[C@@H](CC[C@@]45O[C@@H]4C(O)=C(C#N)C[C@]35C)[C@@H]1CC[C@@H]2O`, the ATP level is inactive: -0.833.

For `O=C(N/N=C/c1ccc([N+](=O)[O-])o1)c1cc([N+](=O)[O-])cc([N+](=O)[O-])c1O`, the ATP level was inactive: 0.319.

Take `COc1ccc(Cc2nccc3cc(OC)c(OC)cc23)cc1OC`: the ATP level is inactive: 1.73.

Take `COc1ccc(C=O)cc1`: the ATP level is inactive: -0.918.

In the case of `COc1cc2c(c(OC)c1OC)-c1ccc(=O)c(O)cc1[C@@H](NC(C)=O)CC2`, the ATP level is inactive: -0.256.

Take `CCC1(CC)C(=O)C=CNC1=O`: the ATP level was inactive: -0.348.

For the compound `C[C@@H]1NCCc2cc(O)c(O)cc21`, the ATP level is inactive: 2.92.

Turning to `O=C(NC(=O)c1c(F)cccc1F)Nc1cc(Cl)c(OC(F)(F)C(F)C(F)(F)F)cc1Cl` (stereo not drawn), the ATP level was inactive: 0.221.

`CNCC(=O)c1ccc(O)c(O)c1`: the ATP level is active: 3.02.

For `COc1cc2c(cc1OC)[C@H](C)NCC2`, the ATP level was inactive: 1.8.

For the compound `COc1cc2c(cc1OC)[C@@]13CCN4CC5=CCO[C@H]6CC(=O)N2[C@H]1[C@H]6[C@H]5C[C@H]43`, the ATP level was inactive: -0.1.

For the compound `C[C@H](N)Cc1ccccc1`, the ATP level is inactive: -0.87.

Regarding `CC(C)(C)NCC(O)c1cc(Cl)c(N)c(Cl)c1` (stereo not drawn), the ATP level is inactive: 0.883.

For the compound `COC(=O)C1=CCCN(C)C1`, the ATP level was inactive: -5.27.

In the case of `C=C(C)[C@H]1Cc2c(ccc3c2O[C@@H]2COc4cc(OC)c(OC)cc4[C@@H]2C3=O)O1`, the ATP level was inactive: -13.9.

With `CC(=O)O[C@H]1C[C@H](O[C@H]2[C@@H](O)C[C@H](O[C@H]3[C@@H](O)C[C@H](O[C@H]4CC[C@@]5(C)[C@H](CC[C@@H]6[C@@H]5C[C@@H](O)[C@]5(C)[C@@H](C7=CC(=O)OC7)CC[C@]65O)C4)O[C@@H]3C)O[C@@H]2C)O[C@H](C)[C@H]1O[C@@H]1O[C@H](CO)[C@@H](O)[C@H](O)[C@H]1O`, the ATP level was inactive: -17.5.

On to `O=C1C=C2C(=CCOC2O)O1` (stereo not drawn), for which the ATP level was active: 3.55.

Turning to `COc1ccc(CCN2CCC(Nc3nc4ccccc4n3Cc3ccc(F)cc3)CC2)cc1`, the ATP level is inactive: -8.11.

On to `CC1=C2[C@H]3OC(=O)[C@@H](C)[C@@H]3CC[C@@]2(C)C=CC1=O`, for which the ATP level was inactive: 0.929.

Regarding `CCC(N)C(O)c1ccc(O)c(O)c1` (stereo not drawn), the ATP level is inactive: -0.693.

Consider `Oc1cc(Cl)ccc1Oc1ccc(Cl)cc1Cl`, for which the ATP level was inactive: 0.845.

Regarding `CC1(C)C(C=C(Cl)Cl)C1C(=O)OC(C#N)c1cccc(Oc2ccccc2)c1` (stereo not drawn), the ATP level is inactive: -1.89.

For the compound `c1cncc(C2=NCCC2)c1`, the ATP level is inactive: 0.00614.

For `Cc1nccc2c1[nH]c1ccccc12`, the ATP level is inactive: -0.385.

As to `C[C@]12C=CC(=O)C=C1CC[C@@H]1[C@@H]2CC[C@]2(C)C(=O)CC[C@@H]12`, the ATP level was inactive: -0.541.

In the case of `CCN1C[C@]2(COC)[C@H](O)C[C@H](OC)[C@@]34[C@@H]5C[C@@]6(O)[C@H](OC(=O)c7ccccc7)[C@@H]5[C@@](OC(C)=O)([C@@H]([C@H](OC)[C@H]23)[C@@H]14)[C@@H](O)[C@@H]6OC`, the ATP level was inactive: -1.56.

For `CC[C@@]1(O)C[C@H](O[C@H]2C[C@H](N(C)C)[C@H](O)[C@H](C)O2)c2c(cc3c(c2O)C(=O)c2c(O)ccc(O)c2C3=O)[C@H]1C(=O)OC`, the ATP level was active: 6.21.

In the case of `O=[N+]([O-])c1cc([As](=O)(O)O)ccc1O`, the ATP level was inactive: -3.81.

Consider `CCC1(c2ccc(N)cc2)CCC(=O)NC1=O` (stereo not drawn), for which the ATP level was inactive: 0.232.

Turning to `CCN(C)C(=O)Oc1cccc([C@H](C)N(C)C)c1`, the ATP level is inactive: -3.76.

As for `C[C@@H](N)[C@@H](O)c1ccccc1`, the ATP level is inactive: 0.0724.

For the compound `CN(C)C(=O)Oc1cc(OC(=O)N(C)C)cc(C(O)CNC(C)(C)C)c1` (stereo not drawn), the ATP level was inactive: -1.47.

Consider `NCCc1ccc(O)cc1`, for which the ATP level is inactive: 2.5.

Take `CC[C@@H](c1cccc(O)c1)[C@@H](C)CN(C)C`: the ATP level was inactive: -1.85.

For `C[N+]1(C)[C@@H]2C[C@@H](OC(=O)[C@H](CO)c3ccccc3)C[C@H]1[C@@H]1O[C@@H]12`, the ATP level was inactive: 1.03.

`C[C@]12CC[C@H](O)C[C@@H]1CC[C@@H]1[C@@H]2CC[C@]2(C)C(=O)CC[C@@H]12`: the ATP level is inactive: -0.131.

Regarding `CCn1cc(C(=O)O)c(=O)c2cc3c(cc21)OCO3`, the ATP level is inactive: -4.76.

Regarding `C[N+]1([O-])[C@@H]2CC[C@H]1C[C@@H](OC(=O)C(CO)c1ccccc1)C2` (stereo partly drawn), the ATP level was inactive: 2.05.

Consider `[N-]=[N+]=CC(=O)OC[C@H](N)C(=O)O`, for which the ATP level is active: 3.24.

`N=C1NC(=O)N2CC12` (stereo not drawn): the ATP level is active: 3.63.

As to `C[C@@H]1O[C@@H](O[C@H]2C[C@@H](O)[C@]3(CO)[C@H]4[C@H](O)C[C@]5(C)[C@@H](C6=CC(=O)OC6)CC[C@]5(O)[C@@H]4CC[C@]3(O)C2)[C@H](O)[C@H](O)[C@H]1O`, the ATP level is inactive: -6.87.

Regarding `COc1ccc2c3c([nH]c2c1)C(C)=NCC3`, the ATP level was inactive: -6.24.

Consider `Oc1ccc(Cl)cc1Cc1cc(Cl)ccc1O`, for which the ATP level is inactive: -7.37.

Take `Cl[C@H]1[C@H](Cl)[C@@H](Cl)[C@@H](Cl)[C@H](Cl)[C@H]1Cl`: the ATP level is inactive: -2.57.

On to `CC(O)CN1CCN(CC(=O)[O-])CCN(CC(=O)[O-])CCN(CC(=O)[O-])CC1.[Gd+3]` (stereo not drawn), for which the ATP level is inactive: 0.778.

For the compound `COc1cc([C@@H]2c3cc4c(cc3[C@@H](O)[C@H]3COC(=O)[C@H]23)OCO4)cc(OC)c1O`, the ATP level is inactive: -10.1.

Regarding `C[C@@]12C(=O)OC(=O)[C@]1(C)[C@H]1CC[C@@H]2O1`, the ATP level was inactive: -14.1.

Regarding `COC(C)(C)CCC[C@H](C)C/C=C/C(C)=C/C(=O)OC(C)C`, the ATP level is inactive: 2.04.

Regarding `CCCC(C)(COC(N)=O)COC(=O)NC(C)C` (stereo not drawn), the ATP level is inactive: -0.128.

For `C[N+]1(C)CCCC(OC(=O)C(O)(c2ccccc2)c2ccccc2)C1` (stereo not drawn), the ATP level was inactive: 0.504.

In the case of `COc1cc(OC)c(OC)cc1C=O`, the ATP level is inactive: 1.15.

As to `C#CC(C)(O)CC` (stereo not drawn), the ATP level is inactive: -1.67.

Regarding `CC(=O)O[C@@H]1C[C@H]2C(C)(C)C(=O)C=C[C@]2(C)[C@H]2CC[C@]3(C)C(=CC(=O)O[C@H]3c3ccoc3)[C@@]21C`, the ATP level was inactive: -5.98.

Consider `COc1cc2c(cc1O)C[C@H]1c3c(cc(O)c(OC)c3-2)CCN1C`, for which the ATP level was inactive: 1.24.

With `CC1(C)C(=O)C=C[C@@]2(C)C1=C(O)C(=O)[C@]1(C)[C@@H]2CC[C@@]2(C)[C@H](c3ccoc3)C[C@H]3O[C@]321`, the ATP level is inactive: 1.34.

As to `O=C1CCO1`, the ATP level is active: 5.91.

On to `Cc1c(O)c(O)cc2c1CC=C1[C@@]2(C)CC[C@@]2(C)[C@@H]3C[C@](C)(C(=O)O)CC[C@]3(C)CC[C@]12C`, for which the ATP level is inactive: -9.27.
